From patent publication US10214514B2, “Hedgehog antagonists having zinc binding moieties” (Curis, Inc., priority 2011, dated 2019)
pIC50: −log10 of the molar value.

System: Hedgehog pathway signaling (Gli-Luc response, OCT-SHH activated 10 Tl/2 (s12) cells)
Assay: Hedgehog signalling inhibition, Gli-Luc reporter assay (Hh Reporter assay)
Type: cell-based
Settings: numeric values for reference compounds
Procedure: Example 17: An In Vitro Assay which Determines the Ability of a Test Compound to Inhibit Hedgehog Signalling
Compounds to be tested were dissolved in DMSO to a concentration of 10 mM, and stored at −20° C. To activate the Hedgehog pathway in the assay cells, an octylated (lipid-modified) form of the N-terminal fragment of the Sonic Hedgehog protein (OCT-SHH) was used. This N-terminal SHH fragment is produced bacterially. See, for example, Taylor F R, et al., Biochemistry, 2001, 40: 4359-71.
Compounds were tested in the“Gli-Luc” assay below, using the cell line 10 Tl/2 (s12), wherein the cells contain a Hedgehog-responsive reporter construct utilizing Luciferase as the reporter gene. In this way, Hedgehog pathway signaling activity is measured via the Gli-Luc response.
10 Tl/2 (s12) cells were plated in a 96-well micro-titer plate (MTP) at 20,000 cells/well in full medium [DMEM with 10% FBS]. Then plates were placed in the incubator for incubation overnight (0/N), at 37° C. and 5% CO2. After 24 h, the medium was replaced with Luciferase-assay medium (DMEM with 0.5% FBS). […]
Wells were washed once with assay buffer [PBS+1 mM Mg^2+ and 1 mM Ca^2+]. […] Plates were incubated at room temperature (RT) for about 30 minutes after which the signals were read, again at RT, on a Topcount (Packard). […]

O=C(CCCCCCC(=O)Nc1ccccc1)NO [SAHA, suberoylanilide hydroxamic acid, reference compound]
pIC50: 6.32
